In PubChem BioAssay AID1508600 (Functional Genomics Laboratory (NCATS/FGL), 2020):
The whole screen tested about 53,000 sequences, of which about 3,700 (7%) were called active.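 How the source made its calls: active means gene knockdowns whose robust z-score for IL-1 alpha signal is at least 2 or at most -2, so actives lie on both sides; inactive means the rest.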 This is one part of the list.

Experiment: Components of the Cytosolic LPS Sensing Pathway: Gene Identification via Genome-wide siRNA Screen;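 further: robust z of the log signal after scaling to non-targeting control siRNA wells of the plate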
Settings: RAW264.7 macrophages, IL-1a HTRF, actives lie on both sides, screened at 100 nM (by protocol), cells primed 5 h with Pam3CSK4 first
Summary of the method: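 Cells (RAW264.7, 1×10^4 per well) were transfected with siRNA at 100 nM and cultured 48h at 37 degrees C. Pam3CSK4 was added for 5 hours; LipidA transfection followed for 24 hour. IL-1a was then measured by HTRF.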

z-score, active:
GGCUCAAAGGAGGGUAGAGTT against Lcn8 3.18
GCCUUAAAAGACCUGACGUTT against Abca8b 2.12
GGACGAAUUUCUUACAGUATT against Mterf4 2.2
GCCCAGAAAUAUAAUCAAATT against Bub1 2.17
GGUUCUCCAAACUCUGCCATT against Arhgap1 2.29
GGACUCAAACGACACAUGCTT against Eci2 2.42
GGCAACUAUAAGUACAUAGTT against Gsta3 3.87
GCCCAACGUGGUGUACAUUTT against Gask1b 4.04

z-score, inactive:
GGCAACAUAGUAAUUGUGGTT against Olfr1223 -0.957
GGAAGAUGAGUUUCAUAAUTT against Htra3 1.45
GCAUUUGAUGAAGACUCGATT against Barx2 0.467
GCAAGUCAAGUGGGCCAAATT against G430095P16Rik 0.249
GGGCUUUGAGCGUGAGUACTT against Adcy7 0.765
GGUACUUCUUCCUUGCUCATT against Itm2c 0.158
GGCCAUUAACAGCAGUCUGTT against Kifc5b -1.71
GGAGUUGAAAGCUCUGCUCTT against S100a7a 1.39
GCAUUUCGUCAGGGCAAAATT against Fuca1 -0.515
GGAGAUUCUGUCAGACAGGTT against Pomgnt1 -1.21
GGUGAUGACCAACUCAGUGTT against Prcc -0.13
GCCGAUGAUGAGAAACGACTT against Cd2 -0.279
GGGAAGGUCACCGUCAAGUTT against Ppp1r14b -1.95
GAAGUUACAGUGAAGUCUCTT against Zfp395 -0.829
AUACGAUGUUGUGGUCAGCTT against Dhrs7c -0.297
GGACCAUAGAUGAGAAAAGTT against Npvf 0.322
CCUAGGAUAGAGAUUGUUGTT against Ndufaf3 0.135
GGCAAAAGGAAGAGGACGATT against Brd4 -1.99
CCGUCUUAAUGGAUGAUUGTT against Dlec1 0.395
GGAUGCUCUCCAAUGAAUCTT against Arhgap28 -0.358
GACAGGAAGUUGAUGAAUUTT against Raet1a -0.468
CCUUAGAGAGCUACGCCAUTT against Mrgprh 0.262
GCAGUGUUAGACUUUUAUGTT against Ermard 0.749
CGGAAGUCUACACGUCUUGTT against Arpin 0.963
GGAGAUAAUCCUUGUCACGTT against Whamm 0.592
CCUGGUGUUUGUCUGUACUTT against Cxcr6 0.896
GGAAUUGGUCUAUAUGCGUTT against Il2ra -1.02
GGCAUUCACUAACCAGUUATT against Nfyb 0.838
GGCAAAGCACCUUUAUCUGTT against G430095P16Rik -0.664
GGUAUACGCUCUCGUAUUGTT against Rbbp9 -0.737
GGGACAAUGAUGUUUUUGUTT against Vmac -1.02
GGUUACCAUGUGAAGCAGGTT against Tnfrsf14 -0.461
GCAAAACAUUUCCUGUCUGTT against Zfp316 -0.555
CCAAUGCCUGUUUAAUAAATT against Prmt8 0.619
GGCUGAAAGGUCAGAUUCCTT against Vbp1 0.364
GGAAAACCUUCAGUCUUUGTT against Slc29a2 1.46
GGAAGAAGACAGCAUGAAGTT against Mpp4 -0.387
GGAAGUAGCCCAGAAGUGUTT against Rad51d -0.337
UUGUCCUGGUCUCCUAUGCTT against Olfr141 1.12
GCAAGGAAGGUUUUCAAGUTT against Gsta2 0.146
GCUGGUGGCAAUCAGAAAATT against Nppc 0.121
GCCAAUGAAAGAGACGUAGTT against Fam81a -0.421
GGAGCUAGAGACAUUGUGCTT against Jade2 -1.63
GCGAGUCUAGAUGUCUAGCTT against Snx21 -0.323
GCUAUUUAUCACCAAGACATT against Plpp6 -1.64
GGUAGACUAUGCUAAAUUATT against Pabpc5 0.659
GCCUAUCGUGGAGAUUCUGTT against Cab39l 0.0783
GGCCAUUUCGUACCUUUGUTT against Plxna3 -0.626
CCCUAGGAGUACAUCAAAUTT against 1700001O22Rik 1.15
GCCAUUUUAUUGAAGCAAGTT against Sema3a 0.0231
GGACCAGAUCCUUCUGCUATT against Ubd 1.04
GCUGACCUUCACUACUAUUTT against Cers6 1.05
GGUAACCUACAGUCAAAGUTT against Gckr 0.0759
CGAUGGUCUAAGUGAAGCGTT against Amer1 0.22
GGCUAAGUCCAACUUUAGATT against Tmprss5 -0.187
GGAAUUAGAGACUGCGGAATT against Zfp821 0.422
AUAGACUCUUCCAUCGGCATT against Ppp1r13l 0.927
GGCAGAACUUACACGAGAUTT against Pphln1 -0.893
GGCAUUGUGGAUUUCGAGCTT against Tbata 0.864
GGAGCAUUUUUUUGUUUCUTT against Cul4b 0.403

A portion from the list above:
z-score, inactive:
GGACCAUAGAUGAGAAAAGTT against Npvf 0.322
CCUAGGAUAGAGAUUGUUGTT against Ndufaf3 0.135
GGCAAAAGGAAGAGGACGATT against Brd4 -1.99
CCGUCUUAAUGGAUGAUUGTT against Dlec1 0.395
GGAUGCUCUCCAAUGAAUCTT against Arhgap28 -0.358
GACAGGAAGUUGAUGAAUUTT against Raet1a -0.468
CCUUAGAGAGCUACGCCAUTT against Mrgprh 0.262
GCAGUGUUAGACUUUUAUGTT against Ermard 0.749
CGGAAGUCUACACGUCUUGTT against Arpin 0.963
GGAGAUAAUCCUUGUCACGTT against Whamm 0.592
CCUGGUGUUUGUCUGUACUTT against Cxcr6 0.896
GGAAUUGGUCUAUAUGCGUTT against Il2ra -1.02
GGCAUUCACUAACCAGUUATT against Nfyb 0.838
GGCAAAGCACCUUUAUCUGTT against G430095P16Rik -0.664
GGUAUACGCUCUCGUAUUGTT against Rbbp9 -0.737
GGGACAAUGAUGUUUUUGUTT against Vmac -1.02
GGUUACCAUGUGAAGCAGGTT against Tnfrsf14 -0.461
GCAAAACAUUUCCUGUCUGTT against Zfp316 -0.555
